Measurements from the supplement of paper PMC10849652.
This is one part of the list.

The chains behind the UniProt entries cited, without tags or fusion partners. Where a name states a change or a piece, a line headed by the entry shows the natural chain unless it says otherwise.
UniProt P54803: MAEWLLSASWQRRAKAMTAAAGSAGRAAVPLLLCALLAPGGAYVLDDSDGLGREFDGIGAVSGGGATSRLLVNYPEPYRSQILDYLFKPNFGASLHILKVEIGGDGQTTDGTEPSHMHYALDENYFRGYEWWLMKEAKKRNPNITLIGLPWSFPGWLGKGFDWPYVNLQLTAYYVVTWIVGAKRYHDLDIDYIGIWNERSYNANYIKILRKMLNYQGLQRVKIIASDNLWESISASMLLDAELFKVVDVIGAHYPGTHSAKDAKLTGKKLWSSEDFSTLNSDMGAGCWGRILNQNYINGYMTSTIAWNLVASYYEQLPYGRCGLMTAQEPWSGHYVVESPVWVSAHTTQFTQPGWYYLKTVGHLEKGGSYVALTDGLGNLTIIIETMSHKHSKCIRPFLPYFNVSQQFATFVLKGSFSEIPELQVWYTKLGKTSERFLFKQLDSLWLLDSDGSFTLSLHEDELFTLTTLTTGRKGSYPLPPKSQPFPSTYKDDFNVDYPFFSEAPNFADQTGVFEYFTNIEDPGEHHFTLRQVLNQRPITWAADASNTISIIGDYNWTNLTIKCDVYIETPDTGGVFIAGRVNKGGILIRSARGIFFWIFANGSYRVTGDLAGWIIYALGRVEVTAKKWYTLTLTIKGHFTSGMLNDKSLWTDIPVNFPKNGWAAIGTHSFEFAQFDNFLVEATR
UniProt Q96AE4: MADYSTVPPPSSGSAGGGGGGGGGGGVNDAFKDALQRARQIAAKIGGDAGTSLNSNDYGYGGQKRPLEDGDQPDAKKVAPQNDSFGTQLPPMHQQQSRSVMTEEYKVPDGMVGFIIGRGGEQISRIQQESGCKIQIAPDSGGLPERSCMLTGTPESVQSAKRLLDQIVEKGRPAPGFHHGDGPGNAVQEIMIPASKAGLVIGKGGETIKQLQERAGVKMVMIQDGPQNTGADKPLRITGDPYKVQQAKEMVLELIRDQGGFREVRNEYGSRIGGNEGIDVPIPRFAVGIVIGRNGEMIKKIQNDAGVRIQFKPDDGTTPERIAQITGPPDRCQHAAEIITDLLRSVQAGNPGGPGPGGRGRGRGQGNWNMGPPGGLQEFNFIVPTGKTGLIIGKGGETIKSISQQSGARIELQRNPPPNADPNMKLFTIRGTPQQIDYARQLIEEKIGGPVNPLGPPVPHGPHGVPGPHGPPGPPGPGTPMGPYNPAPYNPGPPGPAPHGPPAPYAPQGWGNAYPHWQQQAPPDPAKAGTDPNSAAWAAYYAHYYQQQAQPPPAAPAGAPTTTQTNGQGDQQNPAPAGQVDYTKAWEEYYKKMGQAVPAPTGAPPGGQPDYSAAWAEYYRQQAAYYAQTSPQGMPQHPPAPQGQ
UniProt Q10471: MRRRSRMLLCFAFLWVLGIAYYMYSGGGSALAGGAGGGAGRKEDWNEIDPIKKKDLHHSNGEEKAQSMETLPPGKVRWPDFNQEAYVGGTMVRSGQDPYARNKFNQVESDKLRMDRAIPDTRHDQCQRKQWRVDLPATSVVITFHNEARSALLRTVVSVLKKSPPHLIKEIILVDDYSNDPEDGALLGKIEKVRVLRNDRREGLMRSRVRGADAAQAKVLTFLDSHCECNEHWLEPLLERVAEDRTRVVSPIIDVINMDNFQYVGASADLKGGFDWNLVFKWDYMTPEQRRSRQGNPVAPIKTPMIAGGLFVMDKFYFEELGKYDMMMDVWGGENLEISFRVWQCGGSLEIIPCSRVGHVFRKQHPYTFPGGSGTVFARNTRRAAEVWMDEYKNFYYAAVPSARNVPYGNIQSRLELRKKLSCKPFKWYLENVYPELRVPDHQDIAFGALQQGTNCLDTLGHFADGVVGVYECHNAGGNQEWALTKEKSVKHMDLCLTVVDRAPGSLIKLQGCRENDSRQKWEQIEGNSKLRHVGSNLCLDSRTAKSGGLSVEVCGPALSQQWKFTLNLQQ
UniProt Q9BUM1: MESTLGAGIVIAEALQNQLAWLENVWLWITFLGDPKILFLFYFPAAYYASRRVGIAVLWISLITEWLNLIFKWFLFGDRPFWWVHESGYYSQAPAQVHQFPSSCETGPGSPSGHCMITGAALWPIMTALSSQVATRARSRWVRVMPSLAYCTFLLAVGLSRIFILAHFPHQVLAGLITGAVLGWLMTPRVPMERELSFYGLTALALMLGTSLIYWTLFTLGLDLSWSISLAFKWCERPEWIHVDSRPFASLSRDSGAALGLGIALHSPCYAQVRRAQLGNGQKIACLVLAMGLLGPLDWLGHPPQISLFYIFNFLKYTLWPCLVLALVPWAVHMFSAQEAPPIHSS
UniProt Q9NXN4: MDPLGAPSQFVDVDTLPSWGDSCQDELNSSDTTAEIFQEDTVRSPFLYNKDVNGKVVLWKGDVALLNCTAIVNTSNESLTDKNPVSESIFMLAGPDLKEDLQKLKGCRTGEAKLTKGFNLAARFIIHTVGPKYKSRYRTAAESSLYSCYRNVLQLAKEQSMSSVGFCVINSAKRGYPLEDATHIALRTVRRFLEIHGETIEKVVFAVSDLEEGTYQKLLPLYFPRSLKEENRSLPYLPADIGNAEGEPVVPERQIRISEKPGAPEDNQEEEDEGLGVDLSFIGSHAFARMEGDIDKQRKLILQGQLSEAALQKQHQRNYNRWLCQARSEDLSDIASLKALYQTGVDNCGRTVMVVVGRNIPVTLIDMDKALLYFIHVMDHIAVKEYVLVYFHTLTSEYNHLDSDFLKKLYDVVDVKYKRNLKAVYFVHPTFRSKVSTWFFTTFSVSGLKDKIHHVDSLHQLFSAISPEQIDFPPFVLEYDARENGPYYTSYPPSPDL
UniProt Q9UQC2, whole entry, looked up: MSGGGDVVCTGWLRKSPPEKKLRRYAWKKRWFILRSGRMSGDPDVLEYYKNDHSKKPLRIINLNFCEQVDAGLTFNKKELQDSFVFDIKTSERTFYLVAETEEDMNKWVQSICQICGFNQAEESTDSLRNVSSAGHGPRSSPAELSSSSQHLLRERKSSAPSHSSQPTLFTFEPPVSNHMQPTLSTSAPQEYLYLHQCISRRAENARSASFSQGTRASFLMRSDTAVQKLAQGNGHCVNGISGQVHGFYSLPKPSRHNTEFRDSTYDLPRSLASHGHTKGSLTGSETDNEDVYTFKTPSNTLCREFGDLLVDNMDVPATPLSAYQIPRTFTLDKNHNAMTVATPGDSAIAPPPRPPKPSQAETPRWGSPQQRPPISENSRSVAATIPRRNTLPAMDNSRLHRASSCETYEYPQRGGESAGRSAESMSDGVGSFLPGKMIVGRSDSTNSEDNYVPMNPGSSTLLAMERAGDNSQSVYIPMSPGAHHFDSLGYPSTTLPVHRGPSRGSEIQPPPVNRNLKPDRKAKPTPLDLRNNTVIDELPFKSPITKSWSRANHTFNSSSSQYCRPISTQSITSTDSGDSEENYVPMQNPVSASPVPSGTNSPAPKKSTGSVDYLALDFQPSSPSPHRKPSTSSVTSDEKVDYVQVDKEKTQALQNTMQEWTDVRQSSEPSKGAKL
UniProt A2VDF0: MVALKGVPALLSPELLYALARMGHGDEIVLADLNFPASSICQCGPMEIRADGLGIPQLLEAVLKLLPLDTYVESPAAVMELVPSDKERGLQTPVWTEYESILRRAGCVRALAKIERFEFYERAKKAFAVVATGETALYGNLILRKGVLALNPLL
UniProt Q04446: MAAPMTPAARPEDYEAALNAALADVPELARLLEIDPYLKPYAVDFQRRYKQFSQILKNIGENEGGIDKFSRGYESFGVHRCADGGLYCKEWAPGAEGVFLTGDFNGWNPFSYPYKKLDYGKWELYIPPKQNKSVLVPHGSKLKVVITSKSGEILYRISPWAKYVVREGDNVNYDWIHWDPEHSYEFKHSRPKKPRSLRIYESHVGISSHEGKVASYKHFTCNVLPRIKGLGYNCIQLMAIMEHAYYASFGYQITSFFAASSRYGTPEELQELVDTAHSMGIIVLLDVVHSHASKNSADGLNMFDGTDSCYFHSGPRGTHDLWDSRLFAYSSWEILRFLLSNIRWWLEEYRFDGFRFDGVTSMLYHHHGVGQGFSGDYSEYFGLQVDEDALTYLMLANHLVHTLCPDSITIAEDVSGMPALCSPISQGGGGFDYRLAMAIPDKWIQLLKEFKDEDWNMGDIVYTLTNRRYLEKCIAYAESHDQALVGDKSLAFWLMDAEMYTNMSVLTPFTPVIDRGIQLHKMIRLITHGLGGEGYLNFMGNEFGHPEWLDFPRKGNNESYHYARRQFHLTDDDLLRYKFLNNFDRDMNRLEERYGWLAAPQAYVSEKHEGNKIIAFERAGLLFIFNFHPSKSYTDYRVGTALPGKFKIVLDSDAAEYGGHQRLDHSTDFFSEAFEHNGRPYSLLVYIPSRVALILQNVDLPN
UniProt Q5JV73, whole entry, looked up: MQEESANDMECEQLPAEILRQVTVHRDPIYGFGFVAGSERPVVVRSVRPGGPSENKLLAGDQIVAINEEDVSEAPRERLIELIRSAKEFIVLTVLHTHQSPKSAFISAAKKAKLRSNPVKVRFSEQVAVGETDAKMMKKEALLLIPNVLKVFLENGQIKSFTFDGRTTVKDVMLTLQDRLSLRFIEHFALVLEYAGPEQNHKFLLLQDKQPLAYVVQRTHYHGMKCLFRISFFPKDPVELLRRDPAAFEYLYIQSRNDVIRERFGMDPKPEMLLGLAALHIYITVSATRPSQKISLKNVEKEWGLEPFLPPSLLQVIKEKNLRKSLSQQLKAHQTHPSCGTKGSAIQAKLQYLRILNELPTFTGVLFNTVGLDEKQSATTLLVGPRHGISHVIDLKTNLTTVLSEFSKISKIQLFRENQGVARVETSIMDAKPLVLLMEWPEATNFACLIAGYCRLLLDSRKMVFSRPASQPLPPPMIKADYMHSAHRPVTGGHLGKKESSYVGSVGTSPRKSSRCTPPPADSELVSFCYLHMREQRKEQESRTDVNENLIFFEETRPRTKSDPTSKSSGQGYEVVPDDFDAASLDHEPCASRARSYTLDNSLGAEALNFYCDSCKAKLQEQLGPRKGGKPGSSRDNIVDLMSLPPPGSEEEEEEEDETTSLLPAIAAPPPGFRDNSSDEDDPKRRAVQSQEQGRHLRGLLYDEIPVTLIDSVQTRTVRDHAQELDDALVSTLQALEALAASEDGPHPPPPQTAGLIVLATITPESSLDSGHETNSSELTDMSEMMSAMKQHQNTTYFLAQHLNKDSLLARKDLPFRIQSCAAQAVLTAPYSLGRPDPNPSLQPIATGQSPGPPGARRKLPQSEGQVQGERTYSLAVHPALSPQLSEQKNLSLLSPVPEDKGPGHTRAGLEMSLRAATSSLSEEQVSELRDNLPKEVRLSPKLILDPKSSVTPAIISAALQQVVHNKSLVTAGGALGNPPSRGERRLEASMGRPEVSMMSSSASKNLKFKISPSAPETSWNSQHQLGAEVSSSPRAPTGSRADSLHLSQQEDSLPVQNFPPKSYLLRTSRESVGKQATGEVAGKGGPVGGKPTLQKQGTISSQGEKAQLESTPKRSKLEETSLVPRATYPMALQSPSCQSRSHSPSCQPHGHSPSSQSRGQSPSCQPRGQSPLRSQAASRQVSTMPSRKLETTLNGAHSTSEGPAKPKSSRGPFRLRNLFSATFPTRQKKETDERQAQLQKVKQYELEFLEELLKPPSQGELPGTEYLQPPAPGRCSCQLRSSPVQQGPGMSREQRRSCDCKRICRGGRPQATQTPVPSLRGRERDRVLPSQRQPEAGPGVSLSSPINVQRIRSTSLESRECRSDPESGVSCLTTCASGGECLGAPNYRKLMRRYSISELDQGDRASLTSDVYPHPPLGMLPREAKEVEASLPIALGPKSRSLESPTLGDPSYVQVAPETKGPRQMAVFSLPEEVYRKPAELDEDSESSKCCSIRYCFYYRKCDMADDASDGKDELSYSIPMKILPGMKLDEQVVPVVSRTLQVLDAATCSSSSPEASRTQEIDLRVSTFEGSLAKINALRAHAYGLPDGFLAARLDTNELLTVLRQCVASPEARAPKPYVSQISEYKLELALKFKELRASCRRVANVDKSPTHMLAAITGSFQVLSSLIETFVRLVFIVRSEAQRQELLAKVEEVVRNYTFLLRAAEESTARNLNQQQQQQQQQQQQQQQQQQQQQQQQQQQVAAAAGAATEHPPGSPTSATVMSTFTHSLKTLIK
UniProt P15976: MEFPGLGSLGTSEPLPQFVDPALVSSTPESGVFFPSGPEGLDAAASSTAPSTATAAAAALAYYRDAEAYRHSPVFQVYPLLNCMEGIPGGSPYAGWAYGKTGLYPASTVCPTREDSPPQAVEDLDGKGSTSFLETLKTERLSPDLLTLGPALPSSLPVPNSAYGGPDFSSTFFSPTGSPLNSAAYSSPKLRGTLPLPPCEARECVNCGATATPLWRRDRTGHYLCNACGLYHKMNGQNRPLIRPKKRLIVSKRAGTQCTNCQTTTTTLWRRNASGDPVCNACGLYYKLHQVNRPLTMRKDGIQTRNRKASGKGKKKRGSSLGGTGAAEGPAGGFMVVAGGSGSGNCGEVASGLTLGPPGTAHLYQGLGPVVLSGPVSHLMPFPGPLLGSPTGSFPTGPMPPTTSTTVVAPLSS

Legend:
Experiment in all cases: log2 fold change, soluble protein after heating vs DMSO (PISA); higher = thermal stabilisation; K562 cells, 10 uM, 30 min; active = over 0.2 and 3.5 SD of the protein, either way, in both replicates (recomputed)
[1] = compound: CC[C@@H]1C(=O)N(C)c2cnc(Nc3ccc(C(=O)NC4CCN(C)CC4)cc3OC)nc2N1C1CCCC1
Outline: (§1)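 K562 cells at 2×10^6 cells/mL were exposed to 10 μM compound for 30 min, then aliquots were heated for 3 min across 48°C-58°C, pooled, and extracted in PBS containing 0.5% NP-40 at 4°C. The supernatant after 21,000xg for 90 min was taken as soluble protein and measured by TMTpro 16plex LC-MS/MS with channel sums equalised. Thermal stability is reported relative to control samples, with values from duplicates. Fold changes are given on a log2 scale.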

volasertib = compound: CC[C@@H]1C(=O)N(C)c2cnc(Nc3ccc(C(=O)N[C@H]4CC[C@H](N5CCN(CC6CC6)CC5)CC4)cc3OC)nc2N1C(C)C [volasertib]
Outline: as §1

[2] = compound: CC[C@H](C)N1C=C(C2=C(C=C(C=C21)C3=CN=C(C=C3)N4CCNCC4)C(=O)NCC5=C(C=C(NC5=O)C)C)C
Outline: as §1

epoxomicin = compound: CC[C@H](C)[C@@H](C(=O)N[C@@H]([C@@H](C)O)C(=O)N[C@@H](CC(C)C)C(=O)[C@]1(CO1)C)NC(=O)[C@H]([C@@H](C)CC)N(C)C(=O)C [epoxomicin]
Outline: as §1

[3] = compound: CCn1cc(-c2ccnc3[nH]c(-c4cccc(CN(C)C)c4)cc23)c(-c2ccc(NC(=O)N(C)C)cc2)n1
Outline: as §1

[4] = compound: CN(C)CC(=O)Nc1ccc2[nH]c(=O)c3ccccc3c2c1
Outline: as §1

[5] = compound: CN1C2=C(C3=C1C(=O)N(N=C3)CC4=CC(=CC=C4)N)SC(=C2)S(=O)C
Outline: as §1

[6] = compound: CN1CCC(CNc2ccc3ncc(-c4cccc(OC(F)(F)F)c4)n3n2)CC1
Outline: as §1

[7] = compound: CCn1c(C(=O)N(C2CC2)C2CC2)cc2c3c(ncn3C)c(Nc3cc(C)n(C)n3)nc21
Outline: as §1

rosiglitazone = compound: CN(CCOC1=CC=C(C=C1)C[C@H]2C(=O)NC(=O)S2)C3=CC=CC=N3 (racemic) [rosiglitazone]
Outline: as §1

Row | Target | log2 fold change [1] | log2 fold change (volasertib) | log2 fold change [2] | log2 fold change (epoxomicin) | log2 fold change [3] | log2 fold change [4] | log2 fold change [5] | log2 fold change [6] | log2 fold change [7] | log2 fold change (rosiglitazone)
1 | GCSH (UniProt P23434) | inactive: 0.055 | inactive: 0.065 | inactive: -0.078 | inactive: 0.005 | inactive: 0.023 | inactive: 0.028 | inactive: 0.012 | active: -0.338 |  | 
2 | GALC (UniProt P54803) | active: -0.275 | active: -0.959 | inactive: -0.009 | inactive: 0.042 | inactive: 0.096 | inactive: 0.01 | inactive: -0.011 | active: -0.403 |  | 
3 | FUBP1 isoform 2 (UniProt Q96AE4) | inactive: 0.001 | inactive: 0.067 | inactive: -0.063 | inactive: -0.018 | inactive: 0.003 | inactive: -0.024 | inactive: -0.032 | inactive: 0.01 | inactive: -0.013 | inactive: -0.011
4 | GARS1 (UniProt H7C443) | inactive: 0.16 | inactive: 0 | inactive: -0.123 | inactive: -0.155 | inactive: 0.38 | inactive: -0.126 |  | inactive: -0.119 | inactive: 0.008 | 
5 | GALNT2 (UniProt Q10471) | inactive: -0.082 | active: -0.377 | inactive: 0.027 | inactive: -0.004 | inactive: -0.034 | inactive: -0.021 | inactive: -0.079 | inactive: -0.077 |  | 
6 | FRY (UniProt Q5TBA9) | inactive: 0.148 |  |  | inactive: -0.041 | inactive: 0.375 | inactive: -0.012 |  | inactive: -0.179 | inactive: 0.068 | inactive: -0.323
7 | FYTTD1 (UniProt Q96QD9) | inactive: 0.18 |  |  | inactive: -0.18 | inactive: -0.064 |  |  | inactive: 0.267 |  | 
8 | GALNT1 (UniProt Q10472) | inactive: -0.06 | active: -0.218 | inactive: -0.011 | inactive: -0.068 | inactive: -0.041 | inactive: -0.011 | inactive: -0.074 | inactive: 0.106 |  | 
9 | G6PC3 (UniProt Q9BUM1) | inactive: -0.032 | inactive: -0.004 | inactive: -0.087 |  |  | inactive: 0.064 |  |  | inactive: -0.108 | 
10 | GDAP2 (UniProt Q9NXN4) | inactive: 0.155 |  | inactive: 0.076 | inactive: -0.052 |  |  | inactive: 0.079 |  | inactive: 0.028 | 
11 | GALNT7 (UniProt H0YAH3) | inactive: -0.276 |  |  | inactive: 0.038 |  | inactive: -0.061 |  |  |  | inactive: 0.043
12 | GAS6 isoform 1 (UniProt Q14393) | inactive: 0 |  |  | inactive: 0.243 | inactive: 0.051 |  |  | inactive: 0.143 | inactive: 0.092 | 
13 | GBA2 (UniProt Q9HCG7) | inactive: 0 | active: 0.308 | inactive: -0.082 | inactive: -0.062 |  | inactive: 0.027 | inactive: -0.085 |  |  | 
14 | GDF15 (UniProt Q99988) | inactive: -0.153 | inactive: 0.061 | inactive: 0.088 |  |  | inactive: -0.071 | inactive: 0.17 |  |  | inactive: -0.023
15 | GAB2 (UniProt Q9UQC2) | inactive: -0.203 | inactive: -0.009 |  | inactive: 0.065 | inactive: 0.034 | inactive: -0.016 | inactive: 0.002 | inactive: -0.458 |  | 
16 | GALNT11 (UniProt Q8NCW6) | inactive: 0.057 | active: -0.223 | inactive: 0.014 | inactive: -0.002 | inactive: 0.015 | inactive: -0.079 | inactive: 0.013 | inactive: -0.009 |  | 
17 | FUOM (UniProt A2VDF0) | inactive: 0.085 |  | inactive: 0.105 |  |  | inactive: -0.175 |  |  |  | inactive: -0.027
18 | GAGE1 (UniProt Q13065) | inactive: -0.081 |  | inactive: -0.237 |  |  |  |  |  |  | 
19 | GBE1 (UniProt Q04446) | inactive: 0.042 | active: -0.61 |  | inactive: 0.168 |  | inactive: 0.058 | inactive: 0.071 |  |  | 
20 | FOXO3 (UniProt O43524) | inactive: -0.092 | inactive: -0.061 |  | inactive: 0.007 | inactive: -0.004 | inactive: 0.055 | inactive: 0.158 | inactive: -0.188 |  | 
21 | FOXRED2 (UniProt Q8IWF2) | inactive: 0.089 | inactive: 0.092 |  | inactive: -0.187 |  | inactive: -0.115 | inactive: 0.095 |  | inactive: -0.1 | 
22 | GAPVD1 isoform 6 (UniProt Q14C86) | inactive: -0.12 | active: -0.585 | inactive: 0.034 | inactive: -0.015 | inactive: -0.016 | inactive: 0.038 | inactive: 0.083 | inactive: -0.197 |  | 
23 | FRMPD3 (UniProt Q5JV73) | inactive: -0.1 |  |  | inactive: -0.152 |  | inactive: -0.18 |  |  | inactive: 0.007 | inactive: -0.037
24 | GGT7 (UniProt Q9UJ14) | inactive: 0.029 | inactive: -0.063 | inactive: -0.069 | inactive: 0.079 | inactive: -0.124 | inactive: 0.081 | inactive: 0.02 | inactive: 0.023 |  | 
25 | GDE1 (UniProt Q9NZC3) | inactive: 0.033 | inactive: 0.053 | inactive: -0.092 | inactive: -0.046 |  | inactive: -0.049 | inactive: -0.016 |  |  | 
26 | GATA2 (UniProt P23769) | inactive: 0.178 | inactive: 0.086 | inactive: -0.001 |  | inactive: -0.074 | inactive: -0.126 | inactive: 0.058 | inactive: 0.114 | inactive: 0.043 | inactive: 0.016
27 | GATA1 (UniProt P15976) | inactive: 0.134 | inactive: 0.076 | inactive: -0.036 | inactive: 0.152 | inactive: 0.04 | inactive: -0.084 | inactive: 0.046 | inactive: 0.119 |  | 

Part of the list above, with tabs.
Row	Target	log2 fold change [1]	log2 fold change (volasertib)	log2 fold change [2]	log2 fold change (epoxomicin)	log2 fold change [3]	log2 fold change [4]	log2 fold change [5]	log2 fold change [6]	log2 fold change [7]	log2 fold change (rosiglitazone)
17	FUOM (UniProt A2VDF0)	inactive: 0.085		inactive: 0.105			inactive: -0.175				inactive: -0.027
22	GAPVD1 isoform 6 (UniProt Q14C86)	inactive: -0.12	active: -0.585	inactive: 0.034	inactive: -0.015	inactive: -0.016	inactive: 0.038	inactive: 0.083	inactive: -0.197		
